Binding data for two molecules are collected here from paper PMC3823941.

These are yes or no findings as the source states them, for the method shown. In cells and extracts the contact can be indirect. For some of these results: Binding can be weak; no strength is given. Tags and fused reporters may be left off the sequences shown.

What all share (assay): co-IP; S2 cells co-transfected; lysis buffer 100 mM NaCl, 50 mM Tris.HCl pH8.0, 1.5 mM EDTA, 10% glycerol, 1% NP-40; immunoprecipitation with anti-Myc and protein A resin, western blot with anti-HA, anti-Hrs or anti-Flag; MG132 and NH4Cl to block Smo degradation; some samples with HhN-conditioned medium, USP8 overexpression or RNAi, Hrs overexpression or RNAi
(In general: Immunoblotting shows a protein as a band on a membrane.)

Experiment [1] has as its target T1, Myc-Smo (Smoothened, full-length) (Drosophila) (UniProt P91682).
T1 sequence: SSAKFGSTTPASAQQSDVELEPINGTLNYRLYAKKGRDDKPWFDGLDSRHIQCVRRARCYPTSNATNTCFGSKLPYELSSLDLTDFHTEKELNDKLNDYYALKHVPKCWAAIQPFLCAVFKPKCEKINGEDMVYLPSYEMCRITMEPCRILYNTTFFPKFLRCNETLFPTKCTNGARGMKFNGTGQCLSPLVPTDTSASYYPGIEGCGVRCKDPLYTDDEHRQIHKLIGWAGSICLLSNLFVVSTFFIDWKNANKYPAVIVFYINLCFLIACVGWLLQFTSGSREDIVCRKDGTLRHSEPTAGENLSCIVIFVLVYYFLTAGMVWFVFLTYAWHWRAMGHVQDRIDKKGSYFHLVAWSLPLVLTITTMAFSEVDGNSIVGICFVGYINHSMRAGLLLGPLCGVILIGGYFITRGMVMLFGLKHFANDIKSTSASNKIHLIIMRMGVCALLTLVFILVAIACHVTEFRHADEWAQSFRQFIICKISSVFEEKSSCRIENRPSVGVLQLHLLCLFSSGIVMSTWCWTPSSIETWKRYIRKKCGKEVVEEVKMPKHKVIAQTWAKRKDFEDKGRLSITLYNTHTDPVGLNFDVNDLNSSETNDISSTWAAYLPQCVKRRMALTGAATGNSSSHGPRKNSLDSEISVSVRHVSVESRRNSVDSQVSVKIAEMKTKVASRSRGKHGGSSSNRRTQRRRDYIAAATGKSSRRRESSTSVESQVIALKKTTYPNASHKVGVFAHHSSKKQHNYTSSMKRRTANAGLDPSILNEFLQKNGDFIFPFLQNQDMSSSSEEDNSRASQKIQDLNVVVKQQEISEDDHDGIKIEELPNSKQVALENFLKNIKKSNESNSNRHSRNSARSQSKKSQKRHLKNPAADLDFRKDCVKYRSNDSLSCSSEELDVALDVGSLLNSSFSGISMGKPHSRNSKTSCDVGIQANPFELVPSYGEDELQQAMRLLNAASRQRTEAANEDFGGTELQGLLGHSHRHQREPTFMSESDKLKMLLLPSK

The target in experiment [2] is SmoCT truncation with amino acids 679–764 deleted (Drosophila).
The target of experiment [3] is Smo cytoplasmic tail (C-tail) (Drosophila).
Experiment [4] has as its target Smo transmembrane domain (Drosophila).

Flag-USP8 (enzyme): in experiment [1], the binding entry was “binds”.

B1: HA-Hrs (full-length Hrs) (protein, UniProt Q960X8 1-760)
chain: MFRSSFDKNLENATSHLRLEPDWPSILLICDEINQKDVTPKNAFAAIKKKMNSPNPHSSCYSLLVLESIVKNCGAPVHEEVFTKENCEMFSSFLESTPHENVRQKMLELVQTWAYAFRSSDKYQAIKDTMTILKAKGHTFPELREADAMFTADTAPNWADGRVCHRCRVEFTFTNRKHHCRNCGQVFCGQCTAKQCPLPKYGIEKEVRVCDGCFAALQRPTSGSGGAKSGPRPADSELPAEYLNSTLAQQVQTPARKTEQELKEEEELQLALALSQSEAEQQKPKLQSLPPAAYRMQQRSPSPEAPPEPKEYHQQPEEATNPELAKYLNRSYWEQRKISESSSMASPSAPSPMPPTPQPQQIMPLQVKSADEVQIDEFAANMRTQVEIFVNRMKSNSSRGRSISNDSSVQTLFMTLTSLHSQQLSYIKEMDDKRMWYEQLQDKLTQIKDSRAALDQLRQEHVEKLRRIAEEQERQRQMQMAQKLDIMRKKKQEYLQYQRQLALQRIQEQEREMQLRQEQQKAQYLMGQSAPPFPYMPPSAVPQHGSPSHQLNNVYNPYAAGVPGYLPQGPAPAPNGHGQFQAIPPGMYNPAIQQPMPPNLQPGGLMQQPAPPGNPQMMPPMPENQFANNPAAILQLPQQHSIAQPPQIPFQPQPQQIPGQQPQQIPGQQPQQIPGQQPQQIPGQQPQQIPVQQPQPQPQMGHVMLQQHQAPPAAQAPPVTEIANNQVQAVAAAPAPPQNEPGPAPVKAEEPATAELISFD
As to B1, the values for the binding entry in experiment [2], in experiment [3] and in experiment [4] were “no binding”, “binds” and “no binding”, respectively.
